No constants are given. Whether binding was seen depends on the method and setting. Binding seen in cells or lysates may run through a third protein.
Molecular target: Flag-tagged FBXW7α (human) (UniProt Q969H0)
Assay: co-IP

The chains behind the UniProt entries cited, without tags or fusion partners.
UniProt Q969H0: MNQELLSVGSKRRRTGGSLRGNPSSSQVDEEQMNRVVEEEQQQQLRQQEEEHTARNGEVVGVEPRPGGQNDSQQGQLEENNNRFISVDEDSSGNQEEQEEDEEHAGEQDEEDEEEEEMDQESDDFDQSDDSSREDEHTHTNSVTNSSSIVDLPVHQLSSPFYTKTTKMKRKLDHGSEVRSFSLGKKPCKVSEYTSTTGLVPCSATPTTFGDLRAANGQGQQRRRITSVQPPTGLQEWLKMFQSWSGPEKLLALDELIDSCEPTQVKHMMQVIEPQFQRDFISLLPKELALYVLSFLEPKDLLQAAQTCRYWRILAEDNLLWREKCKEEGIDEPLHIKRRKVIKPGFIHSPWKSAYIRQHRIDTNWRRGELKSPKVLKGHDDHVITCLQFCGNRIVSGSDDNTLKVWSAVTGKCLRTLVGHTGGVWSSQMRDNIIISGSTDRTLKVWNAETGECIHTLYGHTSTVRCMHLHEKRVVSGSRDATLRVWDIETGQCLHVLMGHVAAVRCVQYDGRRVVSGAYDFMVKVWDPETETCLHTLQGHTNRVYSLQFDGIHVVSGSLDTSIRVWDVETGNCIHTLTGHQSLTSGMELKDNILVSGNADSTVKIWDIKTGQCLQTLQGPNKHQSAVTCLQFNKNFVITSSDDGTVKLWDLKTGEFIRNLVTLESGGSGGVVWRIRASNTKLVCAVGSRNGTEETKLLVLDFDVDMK
UniProt Q03164: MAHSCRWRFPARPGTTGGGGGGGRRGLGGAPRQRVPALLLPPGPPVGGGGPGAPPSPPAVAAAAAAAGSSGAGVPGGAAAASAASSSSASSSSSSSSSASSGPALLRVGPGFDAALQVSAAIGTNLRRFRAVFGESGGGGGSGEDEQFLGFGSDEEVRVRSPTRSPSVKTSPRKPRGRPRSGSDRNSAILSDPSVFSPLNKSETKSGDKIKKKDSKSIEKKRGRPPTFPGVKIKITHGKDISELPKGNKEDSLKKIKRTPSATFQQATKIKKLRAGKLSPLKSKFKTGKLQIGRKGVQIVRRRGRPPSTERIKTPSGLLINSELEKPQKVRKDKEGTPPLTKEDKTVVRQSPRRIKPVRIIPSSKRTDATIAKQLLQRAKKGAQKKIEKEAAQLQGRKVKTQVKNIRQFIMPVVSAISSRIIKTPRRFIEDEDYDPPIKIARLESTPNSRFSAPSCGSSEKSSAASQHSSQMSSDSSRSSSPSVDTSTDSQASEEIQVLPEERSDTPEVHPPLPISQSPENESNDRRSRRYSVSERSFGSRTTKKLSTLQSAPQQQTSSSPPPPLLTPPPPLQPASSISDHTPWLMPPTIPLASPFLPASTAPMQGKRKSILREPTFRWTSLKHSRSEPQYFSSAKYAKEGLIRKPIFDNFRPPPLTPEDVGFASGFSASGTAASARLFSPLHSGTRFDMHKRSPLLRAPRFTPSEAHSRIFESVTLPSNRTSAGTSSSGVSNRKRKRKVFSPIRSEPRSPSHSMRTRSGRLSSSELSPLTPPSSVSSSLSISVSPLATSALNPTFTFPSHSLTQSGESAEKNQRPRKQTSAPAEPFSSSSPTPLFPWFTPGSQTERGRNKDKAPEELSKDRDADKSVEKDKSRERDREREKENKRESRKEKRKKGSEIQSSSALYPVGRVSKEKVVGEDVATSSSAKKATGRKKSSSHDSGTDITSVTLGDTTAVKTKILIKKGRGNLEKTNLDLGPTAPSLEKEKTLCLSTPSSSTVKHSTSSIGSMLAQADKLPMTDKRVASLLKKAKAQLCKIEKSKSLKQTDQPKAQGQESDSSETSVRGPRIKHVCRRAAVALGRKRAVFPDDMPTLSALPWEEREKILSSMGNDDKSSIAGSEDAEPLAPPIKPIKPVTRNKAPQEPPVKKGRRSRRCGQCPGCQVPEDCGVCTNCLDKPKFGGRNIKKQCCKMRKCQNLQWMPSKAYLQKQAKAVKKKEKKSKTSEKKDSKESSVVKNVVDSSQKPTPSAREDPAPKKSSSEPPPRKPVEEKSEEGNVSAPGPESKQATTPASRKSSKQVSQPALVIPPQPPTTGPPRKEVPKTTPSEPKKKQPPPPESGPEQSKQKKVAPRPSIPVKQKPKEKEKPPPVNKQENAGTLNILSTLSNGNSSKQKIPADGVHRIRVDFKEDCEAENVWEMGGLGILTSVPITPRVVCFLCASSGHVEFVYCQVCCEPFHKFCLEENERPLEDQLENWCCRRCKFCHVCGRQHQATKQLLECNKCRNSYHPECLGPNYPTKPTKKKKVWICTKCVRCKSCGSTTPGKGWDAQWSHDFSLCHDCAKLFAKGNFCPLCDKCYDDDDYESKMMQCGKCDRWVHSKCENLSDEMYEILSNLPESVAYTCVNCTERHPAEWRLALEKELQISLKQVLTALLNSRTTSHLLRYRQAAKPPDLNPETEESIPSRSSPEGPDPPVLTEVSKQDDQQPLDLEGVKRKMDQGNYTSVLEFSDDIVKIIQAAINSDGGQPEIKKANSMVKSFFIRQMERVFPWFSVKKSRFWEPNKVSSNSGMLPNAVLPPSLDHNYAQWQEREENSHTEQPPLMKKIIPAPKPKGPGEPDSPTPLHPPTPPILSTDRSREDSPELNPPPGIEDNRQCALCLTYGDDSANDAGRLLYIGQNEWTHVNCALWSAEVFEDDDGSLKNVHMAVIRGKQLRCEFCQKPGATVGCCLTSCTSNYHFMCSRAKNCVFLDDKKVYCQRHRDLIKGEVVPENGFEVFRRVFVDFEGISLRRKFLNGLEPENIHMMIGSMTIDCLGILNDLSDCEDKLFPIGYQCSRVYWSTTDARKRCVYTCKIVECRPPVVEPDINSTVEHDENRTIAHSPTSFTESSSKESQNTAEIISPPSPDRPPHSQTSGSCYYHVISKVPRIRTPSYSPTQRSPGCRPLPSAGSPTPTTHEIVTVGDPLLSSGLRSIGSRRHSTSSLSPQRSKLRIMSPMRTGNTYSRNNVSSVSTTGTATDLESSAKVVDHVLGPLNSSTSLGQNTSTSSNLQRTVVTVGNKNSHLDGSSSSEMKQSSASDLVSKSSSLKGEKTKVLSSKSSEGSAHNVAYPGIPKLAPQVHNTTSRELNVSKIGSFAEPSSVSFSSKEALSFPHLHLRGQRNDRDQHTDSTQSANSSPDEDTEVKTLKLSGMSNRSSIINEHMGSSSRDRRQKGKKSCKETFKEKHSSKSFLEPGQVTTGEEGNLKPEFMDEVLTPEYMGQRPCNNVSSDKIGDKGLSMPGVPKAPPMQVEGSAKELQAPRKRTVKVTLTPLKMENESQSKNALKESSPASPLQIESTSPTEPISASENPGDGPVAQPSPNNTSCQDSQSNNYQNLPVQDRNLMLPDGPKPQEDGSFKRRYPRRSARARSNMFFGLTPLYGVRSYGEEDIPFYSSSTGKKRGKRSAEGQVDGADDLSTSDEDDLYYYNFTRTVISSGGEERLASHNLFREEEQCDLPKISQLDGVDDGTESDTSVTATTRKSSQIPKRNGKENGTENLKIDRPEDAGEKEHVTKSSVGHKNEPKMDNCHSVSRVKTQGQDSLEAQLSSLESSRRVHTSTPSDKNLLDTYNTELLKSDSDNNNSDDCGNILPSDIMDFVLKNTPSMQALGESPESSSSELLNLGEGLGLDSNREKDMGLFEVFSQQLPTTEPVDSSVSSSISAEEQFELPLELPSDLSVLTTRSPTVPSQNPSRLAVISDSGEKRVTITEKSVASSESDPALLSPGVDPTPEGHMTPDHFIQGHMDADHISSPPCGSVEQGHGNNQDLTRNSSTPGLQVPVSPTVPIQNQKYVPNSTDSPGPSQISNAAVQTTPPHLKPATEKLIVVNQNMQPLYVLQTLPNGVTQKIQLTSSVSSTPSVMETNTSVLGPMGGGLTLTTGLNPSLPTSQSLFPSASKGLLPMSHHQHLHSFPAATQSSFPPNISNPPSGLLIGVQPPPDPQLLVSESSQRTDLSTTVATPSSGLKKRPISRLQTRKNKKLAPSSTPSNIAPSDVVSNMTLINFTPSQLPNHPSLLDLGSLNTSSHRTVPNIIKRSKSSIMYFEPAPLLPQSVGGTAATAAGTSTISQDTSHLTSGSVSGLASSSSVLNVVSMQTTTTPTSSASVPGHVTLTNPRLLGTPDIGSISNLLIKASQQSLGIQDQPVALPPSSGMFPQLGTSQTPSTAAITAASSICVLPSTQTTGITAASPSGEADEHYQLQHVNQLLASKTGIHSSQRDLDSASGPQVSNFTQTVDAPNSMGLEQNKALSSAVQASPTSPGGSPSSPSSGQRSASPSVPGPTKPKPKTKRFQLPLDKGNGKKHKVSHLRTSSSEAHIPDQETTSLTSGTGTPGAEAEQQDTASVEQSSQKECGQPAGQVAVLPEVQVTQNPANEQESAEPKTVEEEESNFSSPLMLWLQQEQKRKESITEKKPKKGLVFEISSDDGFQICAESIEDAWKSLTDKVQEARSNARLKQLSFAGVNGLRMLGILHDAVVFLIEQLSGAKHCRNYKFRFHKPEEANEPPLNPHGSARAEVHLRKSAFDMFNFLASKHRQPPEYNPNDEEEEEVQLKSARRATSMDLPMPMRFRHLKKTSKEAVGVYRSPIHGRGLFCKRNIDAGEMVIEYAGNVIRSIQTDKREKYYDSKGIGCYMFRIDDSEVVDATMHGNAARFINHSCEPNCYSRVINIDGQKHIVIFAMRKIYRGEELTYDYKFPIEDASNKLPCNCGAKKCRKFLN
UniProt O15047: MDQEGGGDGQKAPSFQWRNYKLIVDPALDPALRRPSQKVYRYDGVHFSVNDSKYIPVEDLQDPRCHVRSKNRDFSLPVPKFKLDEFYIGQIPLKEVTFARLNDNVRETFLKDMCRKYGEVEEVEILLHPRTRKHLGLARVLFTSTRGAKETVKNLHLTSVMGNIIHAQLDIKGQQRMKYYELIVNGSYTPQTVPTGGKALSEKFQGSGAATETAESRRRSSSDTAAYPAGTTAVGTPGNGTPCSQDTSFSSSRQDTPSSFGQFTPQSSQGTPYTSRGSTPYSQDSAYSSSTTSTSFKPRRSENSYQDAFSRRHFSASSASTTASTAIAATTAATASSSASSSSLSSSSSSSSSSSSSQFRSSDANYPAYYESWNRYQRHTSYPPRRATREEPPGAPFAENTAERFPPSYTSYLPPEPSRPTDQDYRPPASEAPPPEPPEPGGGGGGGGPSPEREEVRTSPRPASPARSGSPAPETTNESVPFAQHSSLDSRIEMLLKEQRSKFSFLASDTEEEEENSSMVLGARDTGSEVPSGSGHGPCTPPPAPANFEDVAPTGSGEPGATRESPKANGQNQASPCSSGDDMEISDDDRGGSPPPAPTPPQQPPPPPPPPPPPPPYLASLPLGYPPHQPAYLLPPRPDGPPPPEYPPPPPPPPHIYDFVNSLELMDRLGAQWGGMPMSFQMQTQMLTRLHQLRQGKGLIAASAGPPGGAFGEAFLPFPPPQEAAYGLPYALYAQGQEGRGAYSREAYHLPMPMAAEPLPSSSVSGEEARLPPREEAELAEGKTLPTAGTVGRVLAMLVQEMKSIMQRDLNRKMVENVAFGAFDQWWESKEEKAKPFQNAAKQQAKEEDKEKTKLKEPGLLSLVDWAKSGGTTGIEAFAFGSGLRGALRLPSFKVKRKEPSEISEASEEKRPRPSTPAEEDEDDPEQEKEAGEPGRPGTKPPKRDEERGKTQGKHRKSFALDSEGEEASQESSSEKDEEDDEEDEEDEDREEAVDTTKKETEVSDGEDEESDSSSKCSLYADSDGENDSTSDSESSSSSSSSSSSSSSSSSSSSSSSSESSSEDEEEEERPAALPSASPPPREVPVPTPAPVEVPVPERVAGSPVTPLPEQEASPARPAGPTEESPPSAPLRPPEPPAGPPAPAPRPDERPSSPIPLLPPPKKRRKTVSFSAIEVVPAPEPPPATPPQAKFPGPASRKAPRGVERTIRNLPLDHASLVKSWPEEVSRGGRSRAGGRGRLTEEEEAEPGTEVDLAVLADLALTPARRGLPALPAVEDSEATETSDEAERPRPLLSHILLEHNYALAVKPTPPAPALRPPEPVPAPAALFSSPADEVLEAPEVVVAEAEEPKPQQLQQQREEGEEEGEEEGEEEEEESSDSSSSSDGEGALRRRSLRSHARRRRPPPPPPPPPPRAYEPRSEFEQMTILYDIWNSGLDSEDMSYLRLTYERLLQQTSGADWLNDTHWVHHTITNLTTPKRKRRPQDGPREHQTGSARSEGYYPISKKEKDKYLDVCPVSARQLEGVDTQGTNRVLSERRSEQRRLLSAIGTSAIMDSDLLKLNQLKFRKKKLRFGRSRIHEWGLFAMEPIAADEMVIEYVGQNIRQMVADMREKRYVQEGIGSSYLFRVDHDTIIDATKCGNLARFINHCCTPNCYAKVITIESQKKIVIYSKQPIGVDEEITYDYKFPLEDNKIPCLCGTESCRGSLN

| Substance | binding |
| --- | --- |
| MLL1 (from UniProt Q03164 1-3969) | no binding |
| SetD1A (from UniProt O15047 1-1707) | no binding |

Reference: publication doi:10.1101/2022.08.24.505075
